PubChem BioAssay AID652259 – Drosophila RNAi Screening Center | 2013

Aim: 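Genome-wide hunt for genes that control Wingless pathway activity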 (primary screen)
Cells: Drosophila clone 8 imaginal disc epithelial cells
Reagent: long dsRNA against Drosophila genes
Conditions: pathway stimulated by co-transfected Wingless expression plasmid
Measured: 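Dual luciferase reads per well after Wingless plasmid stimulation: reporter firefly light and Renilla control light; activity is firefly divided by Renilla, a ratio not deposited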
Reading the numbers: firefly reporter light: higher = more Wg reporter light, before normalisation; Renilla control light: higher = more transfected or surviving cells
Hit rule: 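a knock-down is a candidate when at least two out of four statistical tests show it departing from its plate mean; one test alone signals a weak candidate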
Calls: active = candidate regulator (raises or lowers reporter); inactive = not a candidate
The deposit covers about 22,000 reagents; shown is a random part of those with a known target gene and a result. In the full data, 233 (1.1%) are marked active. 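Light values are raw, unnormalised plate reads; the ratio scores behind the reporter calls were not deposited.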 Unmarked entries are inactive. Not stated in the record: the amount of reagent, the time to read-out, the dose of the treatment.

The opening 5 records as a preview:
gene knocked down	DRSC id	firefly reporter light, replicate 1	firefly reporter light, replicate 2	Renilla control light, replicate 1	Renilla control light, replicate 2
CG15577	DRSC18065	27777		13273	
CG11000	DRSC12082	2864		679	
CG11000	DRSC12158	14692		5018	
CG2875	DRSC18231	2844	7241	1125	2837
DAAM	DRSC18479	3424		817	

Results, from the first entry:
gene knocked down	DRSC id	firefly reporter light, replicate 1	firefly reporter light, replicate 2	Renilla control light, replicate 1	Renilla control light, replicate 2
CG15577	DRSC18065	27777		13273	
CG11000	DRSC12082	2864		679	
CG11000	DRSC12158	14692		5018	
CG2875	DRSC18231	2844	7241	1125	2837
DAAM	DRSC18479	3424		817	
Nop17l	DRSC06556	3937		1730	
IntS14	DRSC00668	12011		5312	
Cyp313a1	DRSC16624	14416		4184	
Ccp84Ae	DRSC12590	20427		5205	
Acp65Aa	DRSC09663	1173	6360	1021	2896
Pgcl	DRSC18815	20432		14673	
CG31087	DRSC14253	18448		17547	
CG17598	DRSC20636	2354	8012	977	2331
Kdm4B	DRSC06862	7752		2585	
Ppn	DRSC15328	6928		2923	
knon	DRSC07049	5801		1979	
SLC22A	DRSC11826	12600		3152	
SLC22A	DRSC11827	15733		4036	
CG42811	DRSC15367	19138		16081	
Prp31	DRSC10735	4632		1849	
rn	DRSC12500	14656		1884	
rn	DRSC12543	15430		4817	
rn	DRSC12544	13388		5155	
rn	DRSC12546	18816		4816	
rn	DRSC22291	5.82e5	7.22e5	1.59e5	1.85e5
Gnf1	DRSC12351	16720		4632	
Tcs5	DRSC09774	928	6980	904	2770
CG34054	DRSC05277	27504		22781	
CG34459	DRSC06973	4955		2528	
CG34133	DRSC16319	1429	4295	790	2012
CG34133	DRSC22239	8.66e5	8.63e5	4.00e5	3.67e5
Hydr2	DRSC00607	10373		4576	
CG3588	DRSC18473	16241		13379	
Nemp	DRSC20206	2289	5106	1049	1387
CG31661	DRSC00296	1857	3473	1405	1610
toy	DRSC17222	2857	5040	1100	2146
CG13643	DRSC14641	17321		13816	
CG13643	DRSC14642	18724		15458	
galene	DRSC08640	4260		2359	
galene	DRSC08641	7072		3925	
flfl	DRSC16474	10572		2676	
CG14658	DRSC12244	12434		4411	
Pif1	DRSC00582	13334		5467	
E5	DRSC13000	2112		861	
E5	DRSC16585	13764		931	
mRpS5	DRSC21380	1.03e6	7.14e5	8.03e5	4.63e5
spi	DRSC03618	2451	7827	844	2612
CG14238	DRSC14732	8280		2355	
CG14451	DRSC11708	10400		2983	
Sgs7	DRSC11281	4696		3113	
eEFSec	DRSC04571	1652	5185	601	1698
RpS3A	DRSC17168	8003		10128	
CG45105	DRSC15002	13853		1426	
CG45105	DRSC15833	7344		2179	
Trxr2	DRSC11900	15101		5360	
PIG-X	DRSC22721	6.71e5	7.72e5	1.96e5	1.96e5
ND-75	DRSC18686	26245		12640	
Oatp74D	DRSC09491	3532		1352	
Oatp74D	DRSC10883	6129		2359	
ATPsynE	DRSC15476	8708		3377	
Dhod	DRSC16647	4688		2354	
lectin-30A	DRSC02560	1895	4253	729	2519
HHEX	DRSC16186	12522		1616	
CG9886	DRSC00732	15510		4172	
ScsbetaA	DRSC14446	4151		1686	
Hpr1	DRSC12296	6727		2647	
CG15912	DRSC18105	19818		9661	
OS9	DRSC02700	2401	6278	656	2529
CG43759	DRSC19464	2311	8374	1408	3028
CG43759	DRSC19543	22416		8727	
Uev1A	DRSC09763	11562		3242	
CG5002	DRSC06911	14227		5194	
Optix	DRSC05078	27580		10492	
Optix	DRSC07484	7698		3114	
Optix	DRSC21963	5.05e5	5.33e5	1.88e5	2.00e5
